PMC10043402
Results are given in words; binding and its absence hold for the method and conditions named. In cells and extracts the contact can be indirect. Some results given as binding are weak or reduced against the parent protein; the word gives no strength.

Protein sequences, listed by entry. Tags and fused reporters are not part of them.
UniProt P37231: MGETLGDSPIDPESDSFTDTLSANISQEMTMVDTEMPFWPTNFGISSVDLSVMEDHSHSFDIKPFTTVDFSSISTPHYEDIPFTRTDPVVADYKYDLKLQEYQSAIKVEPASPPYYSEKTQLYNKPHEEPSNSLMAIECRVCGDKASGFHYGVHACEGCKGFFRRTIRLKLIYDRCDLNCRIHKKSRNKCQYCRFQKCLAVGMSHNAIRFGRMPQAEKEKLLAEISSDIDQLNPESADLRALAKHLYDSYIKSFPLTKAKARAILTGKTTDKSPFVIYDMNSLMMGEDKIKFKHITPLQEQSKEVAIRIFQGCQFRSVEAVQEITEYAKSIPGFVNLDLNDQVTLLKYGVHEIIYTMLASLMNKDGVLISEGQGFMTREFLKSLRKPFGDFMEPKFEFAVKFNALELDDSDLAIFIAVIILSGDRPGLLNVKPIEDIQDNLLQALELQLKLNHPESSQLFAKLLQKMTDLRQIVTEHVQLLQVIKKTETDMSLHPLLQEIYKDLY
UniProt Q9BYV6: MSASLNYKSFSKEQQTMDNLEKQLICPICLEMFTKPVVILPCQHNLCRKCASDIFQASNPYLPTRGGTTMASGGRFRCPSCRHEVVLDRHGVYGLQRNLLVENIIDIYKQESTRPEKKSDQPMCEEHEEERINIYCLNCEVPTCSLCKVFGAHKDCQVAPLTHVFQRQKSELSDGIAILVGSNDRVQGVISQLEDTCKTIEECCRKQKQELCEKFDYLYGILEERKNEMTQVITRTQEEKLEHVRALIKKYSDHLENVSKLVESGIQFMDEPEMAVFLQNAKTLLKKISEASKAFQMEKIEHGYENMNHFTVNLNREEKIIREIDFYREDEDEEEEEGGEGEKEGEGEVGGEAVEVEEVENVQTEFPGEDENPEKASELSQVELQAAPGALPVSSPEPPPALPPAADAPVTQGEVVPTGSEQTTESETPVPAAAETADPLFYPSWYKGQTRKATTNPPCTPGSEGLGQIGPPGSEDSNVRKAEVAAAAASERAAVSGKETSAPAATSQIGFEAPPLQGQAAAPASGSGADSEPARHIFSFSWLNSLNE

Target: peroxisome proliferator activated receptor γ (UniProt P37231)
Experiment: co-IP; HEK 293 T cells transfected with the indicated plasmids, exposed to DMSO or luteolin (10 μM); lysed in pre-cooled IP buffer, specified antibodies and protein G Bestarose 4FF beads for 4 h, western blot; bait not stated

tripartite motif containing 55 (from UniProt Q9BYV6 1-548) (enzyme)
binding: binds
